Usually AC50 stands for the concentration at which the activity in the assay is half-maximal. A high value points to activity only at high concentration.

Among the data in PubChem BioAssay AID2685 (National Center for Advancing Translational Sciences (NCATS), 2010) are cell number change and AC50 values, retold here.

Some of the results follow. These are further read-outs of the screen, such as a control signal, another cell line or another target. No call is given for them. The list favours compounds with an active or inconclusive main result. The note in brackets gives the kind of curve behind each potency; many fits are weak.

This assay in a line: qHTS Assay for Lipid Storage Modulators in Drosophila S3 Cells.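 On cell number change: cells counted by Cell Tracker Red CMTPX staining in the red channel.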 Particulars: BODIPY lipid droplet fluorescence, 18-24 h; for cell number change: measured here: cell count max response, cells fed with added oleic acid. Summed up: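 Laser-scanning cytometry quantifies lipid droplet accumulation (500–530 nm total intensity; droplet/cell object ratio) in oleic acid-fed (400 uM added) Drosophila S3 cells treated with a concentration series. 20 uM Triacsin C defined 100% inhibition.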
On the technique in general: Quantitative high-throughput screening tests each substance at several concentrations.

[1] abbreviates: measured here: cell number channel AC50, cells fed with added oleic acid.
[2] abbreviates: measured here: lipid fluorescence (Fed channel) AC50, cells fed with added oleic acid.

Regarding `CCOc1ccc(-n2c(O)c(/C=N/c3ccnn3Cc3ccncc3)c3ccccc3c2=O)cc1`, the cell number change turned out to be 2.54%. The AC50 under setting [1] was 0.58 µM [falling, full curve]. For the same molecule, the AC50 under setting [2] is 0.731 µM [falling, full curve]. As for `CC(=O)c1ccc(NC(=O)/C(=C\c2ccco2)NC(=O)c2ccco2)cc1`, the cell number change is 37.3%. Besides, the AC50 under setting [1] was 23.1 µM [rising, single point].

`Cc1cccc(/N=C/c2c(O)c3ccccc3oc2=O)n1`: the cell number change was -19.4%. In addition, the half-maximal activity concentration (AC50) under setting [2] is 3.26 µM [falling, single point]. For the molecule `CCc1sc(C(C2C(=O)CC(C)(C)CC2=O)C2C(=O)CC(C)(C)CC2=O)cc1[N+](=O)[O-]`, the cell number change was -42.9%. Further, the AC50 under setting [1] was 25.9 µM [falling, single point]. The AC50 under setting [2] was 25.9 µM [falling, single point]. In the case of `NNc1nc(-c2ccccc2)cs1`, under setting [1], the AC50 was 0.103 µM [rising, single point]. Consider `Cc1onc(-c2ccccc2)c1C(=O)Nc1ccon1`, for which the cell number change stood at 4.42%. The AC50 under setting [1] was 0.731 µM [falling, full curve, poor fit]. The AC50 under setting [2] was 16.4 µM [falling, partial curve]. In the case of `CN(CCNC(=O)c1cccc(N2CCCC2=O)c1)Cc1ccccc1`, the cell number change was 8.5%. Further, the AC50 under setting [2] is 6.51 µM [falling, partial curve, poor fit].

As to `CCOCCCN(C)C1CCN(C(=O)c2oc3ccccc3c2NC(=O)c2cccc([N+](=O)[O-])c2)CC1`, the cell number change was 31.6%. Under setting [1], the AC50 was 1.64 µM [rising, full curve]. In the case of `CC(C)C(=O)Nc1nnc(CCN2CCOCC2)s1`, the cell number change is -12.3%. The AC50 under setting [2] is 0.231 µM [rising, full curve, poor fit].

Regarding `O=C(CNC(=O)c1ccccc1)OCCOc1cccc(Cl)c1`, the cell number change was -75%. Under setting [1], the AC50 is 29.1 µM [falling, single point].

For `CCOc1c(Br)cc(/C=C(\C#N)C(=O)NC2CC2)cc1OC`, the cell number change came to 2.7%. The half-maximal activity concentration (AC50) under setting [2] was 6.51 µM [falling, single point]. In the case of `O=C(CCN1C(=O)c2ccccc2S1(=O)=O)NCc1ccc(F)cc1`, the cell number change amounted to 22.5%. Under setting [1], the AC50 was 3.66 µM [rising, full curve, poor fit]. The AC50 under setting [2] is 6.51 µM [rising, single point]. With `COc1cccc(NC(=O)C(C)OC(=O)c2n[nH]c3ccccc23)c1` (stereo not drawn), the cell number change is -13%. Consider `Cc1ccc2[nH]c3c(=O)n(CCCN4CCOCC4)cnc3c2c1`, for which the cell number change is -1.57%. Also, the AC50 under setting [2] was 6.51 µM [falling, single point].

As to `O=C(O)CC1(CC(=O)N2CCN(CCO)CC2)CCCC1`, the cell number change is -32.2%. Take `Cc1nn(-c2ccccc2)c(C)c1NC(=O)COC(=O)CC(C)c1ccccc1` (stereo not drawn): the cell number change came out at 33.5%. Besides, the AC50 under setting [1] is 2.59 µM [rising, full curve]. As for `O=S(=O)(Nc1ccc(Br)cc1)c1cccc2cccnc12`, the cell number change is 7.91%. Also, under setting [2], the half-maximal activity concentration (AC50) is 0.651 µM [falling, partial curve, poor fit]. For `CCOC(=O)c1[nH]c(C)c(/C(O)=C2\C(=O)C(=O)N(CCN(C)C)C2c2ccc(C)o2)c1C` (stereo not drawn), the cell number change was found to be 94.5%. For the same molecule, the concentration at half-maximal activity (AC50) under setting [1] is 25.9 µM [rising, single point]. Consider `Cc1ccc(CNC(=O)CCS(=O)(=O)c2cc3c(cc2Cl)NC(=O)CO3)cc1`, for which the cell number change was -9.72%. Besides, under setting [2], the AC50 was 20.6 µM [falling, partial curve]. As to `O=C1CN(S(=O)(=O)c2cc(C(F)(F)F)ccc2Cl)CCN1`, the cell number change was -0.0705%. Further, under setting [2], the AC50 is 3.66 µM [rising, single point]. `O=C(OCC(=O)c1ccccc1Br)c1ccncc1`: the cell number change was -30.7%. Besides, the AC50 under setting [1] was 0.0058 µM [falling, full curve, poor fit]. As to `CC(=O)N1C(=O)C2(C(C#N)=C(N)Oc3c2c(C)nn3-c2ccccc2)c2ccccc21` (stereo not drawn), under setting [2], the AC50 was 6.51 µM [falling, single point]. For the molecule `COC(=O)N/N=C/c1cc(C)n(-c2cccc3ccccc23)c1C`, the cell number change stood at 5.21%.

On to `CCCCCn1c2nc3ccccc3nc2c2c(=O)n(CC(C)C)cnc21`, for which the cell number change amounted to 40.3%. Further, the AC50 under setting [1] is 0.517 µM [rising, full curve, poor fit]. In addition, the AC50 under setting [2] is 1.84 µM [rising, partial curve]. For the molecule `OCCOc1ccc(CN2CCN(CCCc3ccccc3)C(CCO)C2)cc1` (stereo not drawn), the cell number change came to 7.42%. Besides, under setting [2], the AC50 is 29.1 µM [falling, single point]. For `CC(C)(C)C(=O)NC1(C(F)(F)F)NC(=O)N(c2ccc(F)cc2)C1=O` (stereo not drawn), the cell number change was 148%. In the case of `COc1ccc(CCNC(=O)/C=C/C(=O)O)cc1OC`, the cell number change is -40.3%. Moreover, the AC50 under setting [1] was 23.1 µM [falling, single point]. Turning to `Cc1ccc(NC(=O)CSc2nnc(C)c(=O)n2N)cc1Cl`, the cell number change is -6.45%. The half-maximal activity concentration (AC50) under setting [2] was 13 µM [falling, partial curve]. For `C/C(CC(=O)Nc1ccc2c(c1)OCCO2)=N\NC(=O)COc1ccc(C)cc1Br`, the cell number change was -6.67%. In addition, under setting [2], the AC50 was 4.11 µM [rising, single point].

As for `COC(=O)C1=C(N)OC2=C(C(=O)CCC2)C1c1cccs1` (stereo not drawn), the half-maximal activity concentration (AC50) was 2.31 µM [falling, partial curve, poor fit] under setting [1] and 2.06 µM [falling, partial curve] under setting [2]. As to `Cc1cc(=O)cc(C)n1-c1ccccc1N1CCOCC1`, the cell number change was -42.5%. Moreover, the AC50 under setting [1] is 1.3 µM [falling, full curve]. Under setting [2], the AC50 was 0.231 µM [falling, full curve]. With `Cc1cccc(NC(=O)c2cnn(C)c2)c1C`, the cell number change was -21.5%. Under setting [2], the AC50 was 6.51 µM [rising, single point]. Regarding `O=c1[nH]nc(SCc2nnc(-c3ccc([N+](=O)[O-])cc3)o2)n1C1CCCCC1`, the cell number change is -16%. The AC50 under setting [2] is 29.1 µM [falling, single point].

`CCCCNC(=O)CC(C(=O)N1CCc2ccccc21)n1ccnc1` (stereo not drawn): the AC50 is, setting by setting: under setting [1], 0.082 µM [rising, full curve, poor fit]; under setting [2], 0.103 µM [rising, full curve, poor fit]. For `CCOC(=O)N1CCC(NC(=O)c2cc(S(=O)(=O)N(CC)CC)ccc2F)CC1`, the cell number change was -45%. Also, under setting [1], the AC50 is 5.8 µM [falling, full curve, poor fit]. Besides, the AC50 under setting [2] is 7.31 µM [falling, partial curve]. Consider `COc1cc2c(cc1OC)C1=C(C#N)CN(CC(=O)O)CN1CC2`, for which the cell number change amounted to 7.13%. For the same molecule, under setting [2], the AC50 is 7.31 µM [falling, partial curve, poor fit]. In the case of `Cc1c(Cl)cccc1NC(=S)Nn1cnnc1`, the cell number change was -13.3%. On to `Cn1c(N)c(C(=O)c2ccc(Oc3ccccc3)cc2)c(=O)n(C)c1=O`, for which the cell number change was found to be 21%. The AC50 under setting [2] is 2.59 µM [rising, partial curve]. On to `CCOC(=O)C1CCN(c2ncnc3c(C)csc23)CC1`, for which the cell number change is -5.84%. The AC50 under setting [2] was 0.651 µM [falling, single point]. Regarding `S=c1[nH]nc(-c2cccc(Cl)c2)n1Cc1ccccc1`, the half-maximal activity concentration (AC50) was 6.51 µM [rising, single point] under setting [1] and 0.206 µM [rising, full curve, poor fit] under setting [2]. Take `O=C(CCc1nnc(-c2ccc3c(c2)OCO3)o1)N1CCC(c2ccc(F)cc2)C1` (stereo not drawn): the cell number change worked out at 5.73%. Besides, the AC50 under setting [2] was 6.51 µM [falling, single point]. Turning to `CCc1ccc(C(=O)N2CCN(c3ccc(NC(=O)c4ccco4)cc3)CC2)cc1`, the cell number change is -2.21%. Besides, the concentration at half-maximal activity (AC50) under setting [2] is 29.1 µM [falling, single point].

`O=C(c1cc(COc2ccc(F)cc2Cl)on1)N1CCCCCC1`: the AC50 under setting [2] is 0.058 µM [rising, full curve, poor fit]. As for `Nn1c(SCc2cccc3ccccc23)nnc1-c1ccco1`, the cell number change was determined as 32.2%. For the same molecule, the AC50 under setting [1] was 0.82 µM [rising, full curve, poor fit].

Turning to `Cc1n[nH]c(=S)n1/N=C/c1ccc(Br)o1`, the AC50 under setting [2] is 6.51 µM [falling, single point]. Turning to `COC(=O)C1Sc2[nH]c(=O)sc2C(c2ccc(Cl)cc2)C1C(=O)OC` (stereo not drawn), the cell number change was 2.3%.

For the molecule `Cc1ccc(S(=O)(=O)N2CCCC(C(=O)NCC(C)C)C2)cc1` (stereo not drawn), the cell number change was -9.68%. With `COC(=O)c1cc(NC(=S)N2CCN(c3ccccn3)CC2)cc(C(=O)OC)c1`, the cell number change is -6.15%. Also, under setting [2], the concentration at half-maximal activity (AC50) was 6.51 µM [falling, single point]. With `CCC(C(=O)OCC(=O)Nc1ccc(F)cc1)c1ccccc1` (stereo not drawn), the cell number change is -18.7%. Besides, under setting [2], the AC50 is 0.164 µM [falling, full curve, poor fit]. Regarding `CN(C)S(=O)(=O)c1ccc(NC(=O)c2cc(-c3cccs3)nc3ccccc23)cc1`, the cell number change came out at 17.9%. Also, the AC50 under setting [2] is 8.2 µM [rising, partial curve]. As to `CN(C)S(=O)(=O)n1cc(/C=C(\NC(=O)c2ccccc2Cl)C(=O)NCCCN2CCOCC2)c2ccccc21`, the cell number change was 16.6%. The AC50 under setting [2] is 18.4 µM [rising, partial curve]. As to `CCOC(=O)c1cc(S(=O)(=O)NC2CCN(C(=O)OCC)CC2)cn1C`, under setting [2], the AC50 is 0.58 µM [falling, single point]. Regarding `Cc1ccc(S(=O)(=O)c2nc(S(C)(=O)=O)sc2N2CCC3(CC2)OCCO3)cc1`, the cell number change came to 1.08%.

As for `O=C(CN1C(=O)c2ccccc2S1(=O)=O)N1CCc2ccccc21`, the cell number change was found to be 13.4%. Moreover, the AC50 under setting [2] was 2.31 µM [rising, partial curve]. Consider `COc1cccc(/C=C/C(=O)OCC(=O)Nc2cccc(S(=O)(=O)N3CCCCC3)c2)c1OC`, for which the cell number change was found to be 34.3%. Moreover, under setting [1], the AC50 is 8.2 µM [rising, partial curve, poor fit]. Further, the AC50 under setting [2] was 9.2 µM [rising, partial curve]. As to `N#CCC(=O)Nc1ccc(C(=O)OCC(=O)NCCCc2ccccc2)cc1`, the cell number change is 30.6%. For the same molecule, under setting [1], the AC50 is 10.3 µM [rising, partial curve]. As for `CCCCn1c(N)c(N(Cc2ccccc2OC)C(=O)CCSC)c(=O)[nH]c1=O`, the cell number change came out at 18.9%. Further, under setting [2], the AC50 was 5.17 µM [rising, full curve, poor fit]. In the case of `Cc1nc2ccc(NC(=O)c3cccs3)cc2c(=O)n1Cc1ccc(Cl)cc1`, the AC50 under setting [1] is 1.64 µM [rising, partial curve] and the AC50 under setting [2] was 0.82 µM [rising, partial curve]. With `Cc1cccc(NC(=S)N2N=CCC2c2ccccc2)c1` (stereo not drawn), the cell number change was -12.8%. Moreover, the AC50 under setting [2] is 6.51 µM [rising, single point].
